# Results published in the supplement of paper PMC11732987, “Enantioselective OTUD7B fragment discovery through chemoproteomics screening and high-throughput optimisation” (Communications Chemistry, 2025).
# Amino acid sequences for entries named in this document (tags omitted). A change or cut given only in a name is not applied to a line headed by its entry. Residues count along the entry.
# UniProt Q969R5, whole entry, looked up: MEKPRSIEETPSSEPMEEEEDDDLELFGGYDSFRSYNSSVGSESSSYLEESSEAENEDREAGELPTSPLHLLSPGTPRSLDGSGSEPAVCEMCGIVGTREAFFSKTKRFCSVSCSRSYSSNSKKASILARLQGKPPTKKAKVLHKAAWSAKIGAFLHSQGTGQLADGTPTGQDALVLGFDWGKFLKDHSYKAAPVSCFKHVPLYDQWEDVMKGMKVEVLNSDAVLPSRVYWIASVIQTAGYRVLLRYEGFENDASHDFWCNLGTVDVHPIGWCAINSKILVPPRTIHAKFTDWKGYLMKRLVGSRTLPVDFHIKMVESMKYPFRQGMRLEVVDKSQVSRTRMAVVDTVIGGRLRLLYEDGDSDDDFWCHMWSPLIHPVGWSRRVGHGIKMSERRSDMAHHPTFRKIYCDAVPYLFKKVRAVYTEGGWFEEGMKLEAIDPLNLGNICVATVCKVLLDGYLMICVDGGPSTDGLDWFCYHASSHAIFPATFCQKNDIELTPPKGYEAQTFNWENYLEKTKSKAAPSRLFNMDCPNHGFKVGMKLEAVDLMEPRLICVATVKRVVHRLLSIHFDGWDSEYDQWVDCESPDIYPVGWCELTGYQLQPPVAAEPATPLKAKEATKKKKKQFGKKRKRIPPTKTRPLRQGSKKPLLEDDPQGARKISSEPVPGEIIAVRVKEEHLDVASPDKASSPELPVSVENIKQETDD
# UniProt Q5SW96: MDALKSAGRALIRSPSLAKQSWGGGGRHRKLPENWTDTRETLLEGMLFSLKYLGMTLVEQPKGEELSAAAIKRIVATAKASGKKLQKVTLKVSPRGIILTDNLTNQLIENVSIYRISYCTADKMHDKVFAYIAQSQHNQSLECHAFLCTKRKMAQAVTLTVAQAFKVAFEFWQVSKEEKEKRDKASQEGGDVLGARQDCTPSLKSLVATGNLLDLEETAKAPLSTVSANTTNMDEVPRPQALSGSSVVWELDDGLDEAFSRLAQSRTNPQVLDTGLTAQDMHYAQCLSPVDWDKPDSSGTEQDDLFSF
# UniProt Q9UJU2, 2-36: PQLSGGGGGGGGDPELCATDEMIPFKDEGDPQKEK
# UniProt Q96GY3, 133-156: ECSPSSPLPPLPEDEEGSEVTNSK
# UniProt Q07954: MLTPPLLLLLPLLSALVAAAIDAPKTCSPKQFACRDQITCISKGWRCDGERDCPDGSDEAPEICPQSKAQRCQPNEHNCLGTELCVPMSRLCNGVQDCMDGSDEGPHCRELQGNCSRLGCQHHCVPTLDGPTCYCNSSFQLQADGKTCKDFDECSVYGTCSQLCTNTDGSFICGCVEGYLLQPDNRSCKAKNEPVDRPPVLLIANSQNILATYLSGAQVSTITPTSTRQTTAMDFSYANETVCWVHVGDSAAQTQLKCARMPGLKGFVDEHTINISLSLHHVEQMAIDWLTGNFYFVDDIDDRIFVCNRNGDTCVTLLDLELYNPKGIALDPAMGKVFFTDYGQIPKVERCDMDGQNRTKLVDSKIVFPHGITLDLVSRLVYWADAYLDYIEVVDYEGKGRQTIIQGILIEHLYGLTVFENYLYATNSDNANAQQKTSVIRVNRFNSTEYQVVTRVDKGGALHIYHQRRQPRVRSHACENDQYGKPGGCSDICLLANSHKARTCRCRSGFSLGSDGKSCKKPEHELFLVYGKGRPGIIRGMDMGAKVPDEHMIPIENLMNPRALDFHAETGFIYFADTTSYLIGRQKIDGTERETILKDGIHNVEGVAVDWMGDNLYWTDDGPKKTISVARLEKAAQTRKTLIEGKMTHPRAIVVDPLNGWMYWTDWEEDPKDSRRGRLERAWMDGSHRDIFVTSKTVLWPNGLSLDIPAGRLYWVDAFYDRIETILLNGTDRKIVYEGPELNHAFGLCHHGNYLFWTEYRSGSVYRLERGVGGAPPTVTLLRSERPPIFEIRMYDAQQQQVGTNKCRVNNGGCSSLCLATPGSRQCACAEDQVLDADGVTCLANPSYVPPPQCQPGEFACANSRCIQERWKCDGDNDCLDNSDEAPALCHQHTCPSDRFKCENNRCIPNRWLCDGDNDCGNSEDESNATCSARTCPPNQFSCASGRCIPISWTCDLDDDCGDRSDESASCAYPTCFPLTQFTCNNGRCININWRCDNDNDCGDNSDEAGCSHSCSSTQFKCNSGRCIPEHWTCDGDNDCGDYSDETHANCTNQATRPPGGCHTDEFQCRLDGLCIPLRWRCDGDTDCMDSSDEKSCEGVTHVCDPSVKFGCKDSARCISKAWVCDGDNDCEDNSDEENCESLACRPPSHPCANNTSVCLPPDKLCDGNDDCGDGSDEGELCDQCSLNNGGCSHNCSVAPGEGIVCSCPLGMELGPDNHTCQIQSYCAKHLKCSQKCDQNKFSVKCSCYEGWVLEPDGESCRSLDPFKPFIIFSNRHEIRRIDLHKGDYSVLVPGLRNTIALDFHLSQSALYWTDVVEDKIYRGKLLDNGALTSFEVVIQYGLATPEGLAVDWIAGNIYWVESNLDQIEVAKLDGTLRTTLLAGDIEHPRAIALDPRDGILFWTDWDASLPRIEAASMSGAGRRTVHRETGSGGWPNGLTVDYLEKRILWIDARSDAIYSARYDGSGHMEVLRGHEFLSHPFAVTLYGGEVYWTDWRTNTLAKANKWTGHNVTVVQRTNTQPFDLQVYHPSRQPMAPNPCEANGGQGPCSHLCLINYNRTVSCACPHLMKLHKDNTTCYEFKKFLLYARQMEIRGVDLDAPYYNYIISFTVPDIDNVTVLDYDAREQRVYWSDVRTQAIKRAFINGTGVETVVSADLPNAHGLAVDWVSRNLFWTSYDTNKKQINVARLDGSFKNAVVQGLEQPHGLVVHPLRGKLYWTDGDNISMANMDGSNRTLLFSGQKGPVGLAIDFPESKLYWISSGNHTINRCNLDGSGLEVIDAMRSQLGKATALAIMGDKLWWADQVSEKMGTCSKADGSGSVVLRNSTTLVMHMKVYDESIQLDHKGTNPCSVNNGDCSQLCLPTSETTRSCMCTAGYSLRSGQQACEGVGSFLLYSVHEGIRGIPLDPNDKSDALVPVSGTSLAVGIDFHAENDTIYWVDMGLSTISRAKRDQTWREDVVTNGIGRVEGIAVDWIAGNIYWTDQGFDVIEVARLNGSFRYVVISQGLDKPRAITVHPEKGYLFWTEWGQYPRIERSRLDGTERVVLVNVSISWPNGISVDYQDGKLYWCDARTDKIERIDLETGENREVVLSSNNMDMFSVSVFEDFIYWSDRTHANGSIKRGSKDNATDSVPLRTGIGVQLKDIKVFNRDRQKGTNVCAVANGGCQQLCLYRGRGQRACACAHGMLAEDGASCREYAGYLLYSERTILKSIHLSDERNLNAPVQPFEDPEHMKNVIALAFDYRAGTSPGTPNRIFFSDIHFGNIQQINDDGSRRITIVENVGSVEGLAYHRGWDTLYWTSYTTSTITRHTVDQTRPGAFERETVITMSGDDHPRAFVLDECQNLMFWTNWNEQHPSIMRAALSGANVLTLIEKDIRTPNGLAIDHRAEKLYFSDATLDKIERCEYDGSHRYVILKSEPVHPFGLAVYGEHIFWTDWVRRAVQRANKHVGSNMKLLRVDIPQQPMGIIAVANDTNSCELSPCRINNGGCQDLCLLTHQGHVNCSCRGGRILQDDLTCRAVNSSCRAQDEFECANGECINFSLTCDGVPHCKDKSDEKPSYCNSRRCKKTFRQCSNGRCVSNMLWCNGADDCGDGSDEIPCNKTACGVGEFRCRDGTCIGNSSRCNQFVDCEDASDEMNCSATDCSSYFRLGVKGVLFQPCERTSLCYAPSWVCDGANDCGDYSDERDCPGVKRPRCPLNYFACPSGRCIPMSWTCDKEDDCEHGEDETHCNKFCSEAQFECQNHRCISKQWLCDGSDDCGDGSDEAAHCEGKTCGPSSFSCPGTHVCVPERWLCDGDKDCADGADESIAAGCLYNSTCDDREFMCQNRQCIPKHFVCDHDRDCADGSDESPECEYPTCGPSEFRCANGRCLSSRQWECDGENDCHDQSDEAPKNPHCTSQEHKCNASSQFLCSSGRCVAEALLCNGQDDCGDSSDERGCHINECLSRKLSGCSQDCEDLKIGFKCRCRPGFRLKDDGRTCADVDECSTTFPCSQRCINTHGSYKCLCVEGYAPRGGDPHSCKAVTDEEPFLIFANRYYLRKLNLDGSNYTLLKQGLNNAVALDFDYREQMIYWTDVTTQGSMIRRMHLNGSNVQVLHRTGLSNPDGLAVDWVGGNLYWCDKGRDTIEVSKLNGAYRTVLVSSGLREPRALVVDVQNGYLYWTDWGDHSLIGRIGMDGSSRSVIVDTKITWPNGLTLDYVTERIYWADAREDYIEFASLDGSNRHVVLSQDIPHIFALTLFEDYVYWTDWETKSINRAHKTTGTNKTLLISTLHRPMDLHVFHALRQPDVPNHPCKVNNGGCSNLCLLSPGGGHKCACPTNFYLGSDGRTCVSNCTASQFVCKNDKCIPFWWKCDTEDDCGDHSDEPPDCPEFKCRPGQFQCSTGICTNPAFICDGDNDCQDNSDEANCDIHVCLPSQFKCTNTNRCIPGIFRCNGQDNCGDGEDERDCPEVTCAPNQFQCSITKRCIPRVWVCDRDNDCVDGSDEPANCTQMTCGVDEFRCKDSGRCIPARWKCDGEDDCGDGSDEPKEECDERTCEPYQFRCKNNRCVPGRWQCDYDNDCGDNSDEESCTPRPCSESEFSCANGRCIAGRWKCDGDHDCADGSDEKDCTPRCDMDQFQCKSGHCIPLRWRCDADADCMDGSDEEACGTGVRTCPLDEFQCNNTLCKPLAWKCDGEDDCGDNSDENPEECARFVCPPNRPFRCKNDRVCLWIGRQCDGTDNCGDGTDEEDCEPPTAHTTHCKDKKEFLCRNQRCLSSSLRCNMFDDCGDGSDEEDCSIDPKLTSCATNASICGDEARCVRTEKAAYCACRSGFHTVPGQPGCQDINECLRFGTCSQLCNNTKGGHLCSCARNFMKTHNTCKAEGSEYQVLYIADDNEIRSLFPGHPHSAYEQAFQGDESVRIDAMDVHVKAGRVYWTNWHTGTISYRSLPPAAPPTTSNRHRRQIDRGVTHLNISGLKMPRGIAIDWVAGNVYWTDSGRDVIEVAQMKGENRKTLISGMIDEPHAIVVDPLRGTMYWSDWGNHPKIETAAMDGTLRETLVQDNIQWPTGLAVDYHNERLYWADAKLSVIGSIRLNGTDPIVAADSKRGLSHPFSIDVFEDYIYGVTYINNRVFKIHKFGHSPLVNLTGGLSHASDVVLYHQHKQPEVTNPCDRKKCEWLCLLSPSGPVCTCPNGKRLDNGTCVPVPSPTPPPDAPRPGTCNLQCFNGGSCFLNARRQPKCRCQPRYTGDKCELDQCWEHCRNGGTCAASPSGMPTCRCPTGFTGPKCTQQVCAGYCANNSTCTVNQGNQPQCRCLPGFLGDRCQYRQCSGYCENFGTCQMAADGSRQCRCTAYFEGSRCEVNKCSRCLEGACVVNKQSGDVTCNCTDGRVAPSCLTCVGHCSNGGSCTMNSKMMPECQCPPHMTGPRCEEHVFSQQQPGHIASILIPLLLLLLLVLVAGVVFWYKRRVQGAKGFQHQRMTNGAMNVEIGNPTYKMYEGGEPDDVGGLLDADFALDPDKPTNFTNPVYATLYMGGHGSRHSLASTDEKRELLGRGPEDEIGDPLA
# UniProt Q6ZN17: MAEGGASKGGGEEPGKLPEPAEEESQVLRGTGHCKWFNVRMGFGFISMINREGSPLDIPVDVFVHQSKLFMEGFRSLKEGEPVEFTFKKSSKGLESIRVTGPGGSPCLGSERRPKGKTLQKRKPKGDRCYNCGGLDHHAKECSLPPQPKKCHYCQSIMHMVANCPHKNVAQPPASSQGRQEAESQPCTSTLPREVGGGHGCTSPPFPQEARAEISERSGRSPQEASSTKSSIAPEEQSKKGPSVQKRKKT
# UniProt Q9Y4W2: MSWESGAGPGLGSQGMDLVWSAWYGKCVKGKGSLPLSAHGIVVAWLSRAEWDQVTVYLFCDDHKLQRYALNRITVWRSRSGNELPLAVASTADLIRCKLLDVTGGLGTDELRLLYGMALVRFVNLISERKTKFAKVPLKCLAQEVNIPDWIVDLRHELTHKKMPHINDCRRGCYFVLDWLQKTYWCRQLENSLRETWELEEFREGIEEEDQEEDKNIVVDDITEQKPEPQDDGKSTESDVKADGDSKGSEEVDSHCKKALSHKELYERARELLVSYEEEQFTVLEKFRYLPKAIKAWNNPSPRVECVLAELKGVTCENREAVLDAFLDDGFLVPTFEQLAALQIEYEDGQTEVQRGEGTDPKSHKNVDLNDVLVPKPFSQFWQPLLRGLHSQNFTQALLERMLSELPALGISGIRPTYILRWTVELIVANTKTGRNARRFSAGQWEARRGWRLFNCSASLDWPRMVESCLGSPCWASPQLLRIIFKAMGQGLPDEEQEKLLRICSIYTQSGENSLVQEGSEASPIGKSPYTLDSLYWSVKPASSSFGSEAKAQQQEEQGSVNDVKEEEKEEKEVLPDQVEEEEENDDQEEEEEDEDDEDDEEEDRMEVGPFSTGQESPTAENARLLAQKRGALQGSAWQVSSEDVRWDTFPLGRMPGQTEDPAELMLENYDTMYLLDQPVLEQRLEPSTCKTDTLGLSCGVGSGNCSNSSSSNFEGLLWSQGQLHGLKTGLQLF
# Some of the results follow. The data scatter; read single values as rough.
# Tests used:
# [1] = compound: ClCC(=O)N[C@@H]1CCCc2ccccc12; assay: log2 mean competition ratio of IA-DTB cysteine labelling (DMSO/compound) (log2 ratio); higher = stronger cysteine engagement by compound; conditions: treatment time: 4 h, cell line lysate: HEK293T
# Description: (§1)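 IA-DTB competitive cysteine chemoproteomics in HEK293T RIPA lysate. Lysates were treated with compound 29 or 30 at 50 or 200 µM for 4 h, then IA-DTB (500 µM, 1 h), trypsin-digested, NeutrAvidin-enriched and analysed by diaPASEF. Competition ratio = intensity DMSO / intensity compound (n=4 treated, n=64 DMSO); binding: mean log2 CR ≥ 1 and p ≤ 0.05 plus QC filters. Target is the cysteine site.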
# [2] = compound: ClCC(=O)N[C@H]1CCCc2ccccc12; assay: as above; conditions: treatment time: 4 h, cell line lysate: HEK293T
# Description: as §1
target,measurement,setting,value
L3MBTL2 C554 (UniProt Q969R5),log2 mean competition ratio,[1]; 50 µM,-0.357
same,log2 mean competition ratio,[1]; 200 µM,-0.172
same,log2 mean competition ratio,[2]; 200 µM,-0.183
KLHL11 C570 (UniProt Q9NVR0),log2 mean competition ratio,[1]; 50 µM,-0.0177
same,log2 mean competition ratio,[1]; 200 µM,-0.0262
LDLRAP1 C119 (UniProt Q5SW96),log2 mean competition ratio,[1]; 50 µM,-0.0346
same,log2 mean competition ratio,[1]; 200 µM,0.0672
same,log2 mean competition ratio,[2]; 50 µM,0.127
same,log2 mean competition ratio,[2]; 200 µM,-0.00586
KPNA6 C296 (UniProt O60684),log2 mean competition ratio,[1]; 50 µM,-0.213
same,log2 mean competition ratio,[1]; 200 µM,-0.193
same,log2 mean competition ratio,[2]; 50 µM,0.0437
same,log2 mean competition ratio,[2]; 200 µM,-0.207
LEF1 C18 (UniProt Q9UJU2),log2 mean competition ratio,[1]; 50 µM,-0.446
same,log2 mean competition ratio,[1]; 200 µM,-0.25
same,log2 mean competition ratio,[2]; 50 µM,0.139
same,log2 mean competition ratio,[2]; 200 µM,-0.274
KNTC1 C390 (UniProt P50748),log2 mean competition ratio,[1]; 50 µM,0.0551
same,log2 mean competition ratio,[1]; 200 µM,0.184
same,log2 mean competition ratio,[2]; 50 µM,-0.385
same,log2 mean competition ratio,[2]; 200 µM,-0.195
LANCL2 C121 (UniProt Q9NS86),log2 mean competition ratio,[1]; 50 µM,0.479
same,log2 mean competition ratio,[1]; 200 µM,-0.364
same,log2 mean competition ratio,[2]; 50 µM,-0.124
same,log2 mean competition ratio,[2]; 200 µM,-0.161
LCP1 C460 (UniProt P13796),log2 mean competition ratio,[1]; 50 µM,0.334
same,log2 mean competition ratio,[1]; 200 µM,0.126
same,log2 mean competition ratio,[2]; 50 µM,0.381
same,log2 mean competition ratio,[2]; 200 µM,0.075
KIFC1 C509 (UniProt Q9BW19),log2 mean competition ratio,[1]; 50 µM,-0.00966
same,log2 mean competition ratio,[1]; 200 µM,0.0619
same,log2 mean competition ratio,[2]; 50 µM,0.0523
same,log2 mean competition ratio,[2]; 200 µM,0.179
KLHL41 C147 (UniProt O60662),log2 mean competition ratio,[1]; 50 µM,0.134
same,log2 mean competition ratio,[1]; 200 µM,-0.261
same,log2 mean competition ratio,[2]; 50 µM,-0.0602
same,log2 mean competition ratio,[2]; 200 µM,-0.026
KIF7 C667,log2 mean competition ratio,[1]; 50 µM,0.236
same,log2 mean competition ratio,[1]; 200 µM,0.301
same,log2 mean competition ratio,[2]; 50 µM,-0.479
same,log2 mean competition ratio,[2]; 200 µM,0.345
KMT2D C414 (UniProt O14686),log2 mean competition ratio,[1]; 50 µM,-0.0159
same,log2 mean competition ratio,[1]; 200 µM,-0.186
same,log2 mean competition ratio,[2]; 50 µM,0.275
same,log2 mean competition ratio,[2]; 200 µM,-0.0809
KTN1 C1136,log2 mean competition ratio,[1]; 50 µM,0.00094
same,log2 mean competition ratio,[1]; 200 µM,-0.216
same,log2 mean competition ratio,[2]; 50 µM,-0.546
same,log2 mean competition ratio,[2]; 200 µM,-0.354
LIN37 C134 (UniProt Q96GY3),log2 mean competition ratio,[1]; 50 µM,-0.418
same,log2 mean competition ratio,[1]; 200 µM,0.234
same,log2 mean competition ratio,[2]; 50 µM,-0.0916
same,log2 mean competition ratio,[2]; 200 µM,0.0145
KIFAP3 C78 (UniProt Q92845),log2 mean competition ratio,[1]; 50 µM,-0.235
same,log2 mean competition ratio,[1]; 200 µM,0.198
same,log2 mean competition ratio,[2]; 50 µM,-0.0627
same,log2 mean competition ratio,[2]; 200 µM,0.00677
LRP1 C40 (UniProt Q07954),log2 mean competition ratio,[1]; 50 µM,0.0944
same,log2 mean competition ratio,[1]; 200 µM,0.374
same,log2 mean competition ratio,[2]; 50 µM,-0.371
same,log2 mean competition ratio,[2]; 200 µM,0.0857
LDLR C75 (UniProt P01130),log2 mean competition ratio,[1]; 50 µM,-0.0361
same,log2 mean competition ratio,[1]; 200 µM,0.539
same,log2 mean competition ratio,[2]; 50 µM,0.0504
same,log2 mean competition ratio,[2]; 200 µM,0.591
LIN28B C201 (UniProt Q6ZN17),log2 mean competition ratio,[1]; 50 µM,0.157
same,log2 mean competition ratio,[1]; 200 µM,0.235
same,log2 mean competition ratio,[2]; 50 µM,-0.237
same,log2 mean competition ratio,[2]; 200 µM,0.171
LIMA1 C316 (UniProt Q9UHB6),log2 mean competition ratio,[1]; 50 µM,-0.239
same,log2 mean competition ratio,[1]; 200 µM,-0.395
same,log2 mean competition ratio,[2]; 50 µM,-0.0417
same,log2 mean competition ratio,[2]; 200 µM,-0.489
KYAT3 C337 (UniProt Q6YP21),log2 mean competition ratio,[1]; 50 µM,0.231
same,log2 mean competition ratio,[1]; 200 µM,0.0283
same,log2 mean competition ratio,[2]; 50 µM,-0.0508
same,log2 mean competition ratio,[2]; 200 µM,-0.11
LAS1L C316 (UniProt Q9Y4W2),log2 mean competition ratio,[1]; 50 µM,0.0617
same,log2 mean competition ratio,[1]; 200 µM,0.194
same,log2 mean competition ratio,[2]; 50 µM,0.0503
same,log2 mean competition ratio,[2]; 200 µM,0.272
KMT2B C353 (UniProt Q9UMN6),log2 mean competition ratio,[1]; 50 µM,0.0504
same,log2 mean competition ratio,[1]; 200 µM,0.242
same,log2 mean competition ratio,[2]; 50 µM,-0.0626
same,log2 mean competition ratio,[2]; 200 µM,0.206

# Two records drawn at random from the list so far, as already listed:
target,measurement,setting,value
LDLRAP1 C119 (UniProt Q5SW96),log2 mean competition ratio,[2]; 50 µM,0.127
KNTC1 C390 (UniProt P50748),log2 mean competition ratio,[2]; 200 µM,-0.195

# An excerpt of these results, with tabs:
target	measurement	setting	value
LDLRAP1 C119 (UniProt Q5SW96)	log2 mean competition ratio	[2]; 50 µM	0.127
KMT2D C414 (UniProt O14686)	log2 mean competition ratio	[1]; 200 µM	-0.186
